# Results published in PubChem BioAssay AID493014 (National Center for Advancing Translational Sciences (NCATS), 2011).
# This is one part of the list. Further columns of the screen follow, without active or inactive calls. Compounds called inactive in the main read-out are mostly missing here. Words in brackets tell the shape of the fitted curve; partial curves, single points and poor fits give uncertain potencies.
# Assay: qHTS Assay to Find Inhibitors of Chronic Active B-Cell Receptor Signaling
# Details: ABC-DLBCL IkBa-CBG/CBR reporter, luminescence ratio (green luciferase fused to IkBa over red control in TMD8 lymphoma cells), 4 h
# Procedure, shortened: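 TMD8 ABC-DLBCL cells carrying doxycycline-inducible green luciferase fused to IkappaBalpha plus unfused red luciferase were exposed to compounds (up to 46 uM) for 4 hrs at 37C. Activity came from the overlap-corrected green/red luminescence ratio.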
# [1] = measured here: CBR red luminescence, cell number
# [2] = measured here: IkBa-CBG green luminescence
Compound,AC50 [1],AC50 [2]
Cc1cc(/C=C2\SC(=O)N(C)C2=O)c(C)n1-c1ccc(O)cc1,"35.5 µM [falling, single point]",
CC1(C)O[C@@H]2C[C@H]3[C@@H]4CCC5=CC(=O)C=C[C@]5(C)[C@@]4(F)[C@@H](O)C[C@]3(C)[C@]2(C(=O)CO)O1,"0.1 µM [rising, full curve, poor fit]",
CC1CC/C(=N/Nc2ccccc2)C(=O)N1 (centres undefined),"16.4 µM [falling, partial curve]",
COc1ccc(C2=NOC(C(=O)NCc3ccc(F)cc3)C2)cc1OC (centres undefined),"20.6 µM [rising, single point]","16.4 µM [falling, single point]"
Cc1ccc(OCC(=O)N(Cc2cccc(F)c2)C2CCS(=O)(=O)C2)cc1 (centres undefined),"8.91 µM [falling, partial curve, poor fit]",
CC(C)CCn1cnc2c(oc3nc4c(cc32)CCCC4)c1=O,"10 µM [rising, partial curve, poor fit]",
O=C(Cn1nnc(-c2ccccc2Cl)n1)Nc1cccc(S(=O)(=O)N2CCCC2)c1,"9.2 µM [falling, partial curve, poor fit]",
O=C(O)COc1ccc2oc3ccccc3c2c1,,"1.41 µM [rising, partial curve, poor fit]"
COc1ccccc1C(=O)NNC(=S)Nc1ccccc1,"7.94 µM [falling, partial curve]",
COc1ccc(OC)c(-n2c(-c3ccc(O)cc3O)n[nH]c2=S)c1,"35.5 µM [falling, single point]",
Fc1ccc(/C=N/Nc2ccccn2)cc1,"0.231 µM [rising, full curve, poor fit]",
Cc1ccc(C)c(-n2sc3ccc(F)cc3c2=O)c1,,"20.6 µM [falling, partial curve, poor fit]"
N=c1n(Cc2ccccc2)c2ccccc2n1CC(O)c1ccccc1 (centres undefined),"12.6 µM [falling, partial curve, poor fit]",
Cn1c(SCCOc2ccccc2Cl)nnc1-c1ccncc1,"29.1 µM [rising, partial curve, poor fit]",
S=c1nc[nH]c2c1ncn2C1CCCC1,"12.6 µM [rising, single point]",
O=C(O)CCCc1ccccc1,"16.4 µM [rising, single point]",
CCCCn1c(N)c(N(CC)C(=O)c2ccc(N(C)S(=O)(=O)c3ccc(C)cc3)cc2)c(=O)[nH]c1=O,"14.6 µM [rising, partial curve, poor fit]",
CC(=O)c1cc(C#N)c(SCC(=O)Nc2nccs2)nc1C,"5.01 µM [falling, partial curve, poor fit]",
Clc1cccc(-c2cc3nc4c(c(NCc5ccco5)n3n2)CCCC4)c1,"12.6 µM [falling, partial curve, poor fit]",
Cc1ccc(-c2c(C(=O)N/N=C/c3sccc3C)nnn2-c2nonc2N)cc1,"35.5 µM [falling, single point]",
O=C(CSc1ccc(-c2ccncc2)nn1)N1CCCC1,"0.794 µM [falling, full curve, poor fit]",
CCOC(=O)c1nc(-c2ccccc2)sc1C(C)=O,"2 µM [rising, full curve, poor fit]",

Compound,AC50 [1],AC50 [2]
COc1ccc(Nc2nc(-c3cc4cccc(OC)c4oc3=O)cs2)cc1,"5.8 µM [falling, partial curve, poor fit]",
Cc1c(NC(=O)CCCOc2ccccc2)cccc1[N+](=O)[O-],"6.31 µM [falling, partial curve, poor fit]",
O=C(Nc1cccc(C(F)(F)F)c1)NC1CCCCC1,"3.66 µM [falling, single point]",
O=C(Cc1cccs1)N1CCN(S(=O)(=O)c2ccc(F)c(F)c2)CC1,"29.1 µM [rising, single point]",
O=C(c1ccoc1)N1CCC2(CC1)Oc1ccc(Cl)cc1C(=O)C21CC(c2ccccc2)=NO1 (centres undefined),"11.2 µM [falling, partial curve, poor fit]",
C=CCn1cnc2scc(-c3ccc(C)c(C)c3)c2c1=O,"2.24 µM [falling, partial curve, poor fit]",
Cc1ccc(-n2c(SC3CCOC3=O)nc3ccccc3c2=O)cc1 (centres undefined),"28.2 µM [rising, single point]",
COc1cccc2cc(-c3nnc(Nc4ccccc4C)s3)c(=O)oc12,"0.708 µM [falling, full curve, poor fit]",
Cc1ccc2nc(/C(C#N)=C/c3ccc(-c4ccccc4C(=O)O)o3)[nH]c2c1,"17.8 µM [falling, partial curve]",
O=C(O)CCCN1C(=O)/C(=C/c2ccncc2)SC1=S,"0.224 µM [falling, full curve, poor fit]","17.8 µM [rising, single point]"
CCOC(=O)c1ccc(NNC(=O)CC)c([N+](=O)[O-])c1,"14.1 µM [rising, single point]",
Cn1nc(-c2ccccc2)c(CSc2cccc(Cl)c2)c1Cl,"23.1 µM [rising, single point]",
Cc1ccc(/C=c2\sc3nc(-c4ccco4)nn3c2=O)o1,"5.8 µM [rising, partial curve]",
S=C(NCc1ccccc1)NNc1ccccc1,"22.4 µM [falling, single point]","15.8 µM [falling, single point]"
Cn1c(=O)[nH]c2sc3c(c2c1=O)CC(C)(C)OC3,"0.164 µM [falling, full curve, poor fit]",
O=C(c1ccccc1)c1cnc2ccc(Cl)cc2c1N1CCOCC1,"20 µM [rising, single point]",
OCc1ccnc2c(O)cccc12,,"5.62 µM [falling, full curve]"
CCCC12CN3CC(C)(CN(C1)C3c1ccc3c(c1)OCO3)C2=O (centres undefined),"2.06 µM [rising, single point]",
COc1cc2c(cc1OC)/C(=C/C(=O)c1ccccc1)NCC2,"1 µM [rising, full curve]",
O=C(CC1Nc2ccccc2NC1=O)Nc1ccccc1 (centres undefined),"18.4 µM [falling, partial curve]",
O=C(Nc1ncc([N+](=O)[O-])s1)c1ccco1,"2.24 µM [falling, full curve, poor fit]",
COc1ccc(-n2cc(CN(C)Cc3n[nH]c(=O)[nH]3)c(-c3cccc(F)c3)n2)cc1,"0.447 µM [rising, full curve, poor fit]",

Compound,AC50 [1],AC50 [2]
COc1ccc(OCC(=O)Nc2cccc(-c3nc4ccccc4[nH]3)c2)cc1,"7.94 µM [falling, partial curve, poor fit]",
O=C(Nc1ccc2c(c1)OCO2)c1cccc(S(=O)(=O)N2CCCC2)c1,"29.1 µM [falling, single point]",
Cc1cccc(C(=O)NC(=S)NNC(=O)c2ccc(Cl)cc2)c1,"32.6 µM [rising, single point]","29.1 µM [falling, single point]"
CCNC(=S)N1C2CCC1CC(NC(=O)NC1CCCCC1)C2 (centres undefined),"32.6 µM [rising, single point]",
O=C(NC1=NCCS1)c1cc(-c2ccc(-c3ccccc3)cc2)nc2ccccc12,"2.06 µM [falling, partial curve, poor fit]",
COc1ccc(NC(=O)CCCn2cc([N+](=O)[O-])cn2)cc1,"0.562 µM [rising, full curve, poor fit]",
O=C1Nc2cc(Cl)c(Cl)cc2N(O)N1c1ccccc1,"32.6 µM [falling, partial curve, poor fit]",
CCOc1ccc(Oc2nc(N(CC)CC)nc(N3CCOCC3)n2)nn1,,"11.2 µM [falling, partial curve, poor fit]"
COc1ccc(Br)cc1Cn1nnc(C(=O)Nc2ccc3c(c2)OCCO3)c1N,"2.24 µM [falling, full curve, poor fit]",
O=C(Nc1nc(-c2cccc([N+](=O)[O-])c2)cs1)C(c1ccccc1)c1ccccc1,"2.59 µM [falling, full curve, poor fit]",
Cc1ccc(N/C(N)=N/c2nc(C)cc(C)n2)cc1,"7.31 µM [falling, partial curve]",
COc1cc(C(=O)Nc2sc3c(c2C(=O)O)CCC3)cc(OC)c1OC,"0.2 µM [falling, full curve, poor fit]",
Cn1ncc2c(NCc3cccc(Cl)c3)ncnc21,"10 µM [falling, partial curve]",
Cc1ccc(S(=O)(=O)Nc2ccc(OCC(=O)N3CCOCC3)cc2)c(C)c1NS(C)(=O)=O,"0.501 µM [falling, partial curve, poor fit]",
Cc1cc(C)cc(NC2=NC3(CCCCC3)N=C(N)N2)c1,"31.6 µM [rising, single point]","20 µM [falling, single point]"
Cc1ccc(OC(C)C(=O)N(Cc2cccs2)C2CCS(=O)(=O)C2)cc1C (centres undefined),"11.2 µM [falling, partial curve, poor fit]",
CC(CC12CC3CC(CC(C3)C1)C2)NCc1ccccc1O (centres undefined),"15.8 µM [falling, single point]",
O=c1[nH]c(=O)c2nc(-c3ccc(Cl)cc3)cnc2[nH]1,"35.5 µM [falling, single point]",
CCOc1cc(/C=C/c2cccc[n+]2C)ccc1O,"12.6 µM [rising, single point]",
COc1cccc2sc(N3CCN(C(=O)c4ccc([N+](=O)[O-])o4)CC3)nc12,"23.1 µM [falling, single point]",
